Measured values from patent US20200087392A1.
No constants are given. Whether binding was seen depends on the method and setting. Some results given as binding are weak or reduced against the parent protein; the word gives no strength.

Amino acid sequences for entries named in this document (tags omitted). A change or cut given only in a name is not applied to a line headed by its entry.
UniProt Q86Z14: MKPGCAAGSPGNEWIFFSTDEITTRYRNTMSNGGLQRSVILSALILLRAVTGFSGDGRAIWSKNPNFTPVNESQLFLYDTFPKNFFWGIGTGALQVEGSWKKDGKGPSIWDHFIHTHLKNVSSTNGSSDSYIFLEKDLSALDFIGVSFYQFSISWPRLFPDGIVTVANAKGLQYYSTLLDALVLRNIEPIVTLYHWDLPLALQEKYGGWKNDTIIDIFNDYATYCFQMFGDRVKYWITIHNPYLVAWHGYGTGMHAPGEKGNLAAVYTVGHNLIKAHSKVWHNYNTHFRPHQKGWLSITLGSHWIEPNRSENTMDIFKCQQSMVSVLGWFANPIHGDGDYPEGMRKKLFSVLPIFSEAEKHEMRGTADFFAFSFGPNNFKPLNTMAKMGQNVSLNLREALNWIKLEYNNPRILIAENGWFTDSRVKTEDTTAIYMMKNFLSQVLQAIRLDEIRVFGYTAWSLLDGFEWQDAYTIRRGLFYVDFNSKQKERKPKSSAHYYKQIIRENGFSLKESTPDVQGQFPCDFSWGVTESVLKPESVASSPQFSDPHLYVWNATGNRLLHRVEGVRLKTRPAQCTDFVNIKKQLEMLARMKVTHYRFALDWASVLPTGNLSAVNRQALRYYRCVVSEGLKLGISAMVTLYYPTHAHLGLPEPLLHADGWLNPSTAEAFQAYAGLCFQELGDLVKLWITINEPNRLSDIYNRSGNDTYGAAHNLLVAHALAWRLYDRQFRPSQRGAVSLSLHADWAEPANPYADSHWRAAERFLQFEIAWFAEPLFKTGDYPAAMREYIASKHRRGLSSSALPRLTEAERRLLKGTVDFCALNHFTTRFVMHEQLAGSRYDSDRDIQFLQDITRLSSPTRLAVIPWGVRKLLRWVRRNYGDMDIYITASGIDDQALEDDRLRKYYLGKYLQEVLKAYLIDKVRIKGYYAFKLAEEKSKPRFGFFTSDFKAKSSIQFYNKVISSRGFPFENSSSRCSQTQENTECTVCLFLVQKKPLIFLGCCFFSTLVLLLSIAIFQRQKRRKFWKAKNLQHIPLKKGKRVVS

How the values were obtained:
NOV001 = experiment: solution equilibrium titration (SET): NOV001 held at 10 pM, human β-klotho (KLB) titrated in solution, y axis 'Signal'
NOV002 = experiment: solution equilibrium titration (SET): NOV002 held at 10 pM, human β-klotho (KLB) titrated in solution, y axis 'Signal'
NOV004 = experiment: solution equilibrium titration (SET): NOV004 held at 10 pM, human β-klotho (KLB) titrated in solution, y axis 'Signal'

Measured: binding

human β-klotho (from UniProt Q86Z14 52-997) (receptor)
binds: NOV001 | NOV002 | NOV004
